Experimental data as given in article doi:10.1101/2022.04.25.489402.
These are yes or no findings as the source states them, for the method shown. In cells and extracts the contact can be indirect. Some binding calls cover weakened binding; strength is not graded here.

Amino acid sequences for entries named in this document (tags omitted).
UniProt O60248: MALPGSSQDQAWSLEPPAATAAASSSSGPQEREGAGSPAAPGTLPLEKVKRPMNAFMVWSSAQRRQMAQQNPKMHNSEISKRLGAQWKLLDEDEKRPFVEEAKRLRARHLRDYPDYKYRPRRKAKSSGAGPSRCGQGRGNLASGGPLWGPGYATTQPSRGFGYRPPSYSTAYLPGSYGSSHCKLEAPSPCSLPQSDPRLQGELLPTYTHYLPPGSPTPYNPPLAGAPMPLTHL
UniProt Q01831: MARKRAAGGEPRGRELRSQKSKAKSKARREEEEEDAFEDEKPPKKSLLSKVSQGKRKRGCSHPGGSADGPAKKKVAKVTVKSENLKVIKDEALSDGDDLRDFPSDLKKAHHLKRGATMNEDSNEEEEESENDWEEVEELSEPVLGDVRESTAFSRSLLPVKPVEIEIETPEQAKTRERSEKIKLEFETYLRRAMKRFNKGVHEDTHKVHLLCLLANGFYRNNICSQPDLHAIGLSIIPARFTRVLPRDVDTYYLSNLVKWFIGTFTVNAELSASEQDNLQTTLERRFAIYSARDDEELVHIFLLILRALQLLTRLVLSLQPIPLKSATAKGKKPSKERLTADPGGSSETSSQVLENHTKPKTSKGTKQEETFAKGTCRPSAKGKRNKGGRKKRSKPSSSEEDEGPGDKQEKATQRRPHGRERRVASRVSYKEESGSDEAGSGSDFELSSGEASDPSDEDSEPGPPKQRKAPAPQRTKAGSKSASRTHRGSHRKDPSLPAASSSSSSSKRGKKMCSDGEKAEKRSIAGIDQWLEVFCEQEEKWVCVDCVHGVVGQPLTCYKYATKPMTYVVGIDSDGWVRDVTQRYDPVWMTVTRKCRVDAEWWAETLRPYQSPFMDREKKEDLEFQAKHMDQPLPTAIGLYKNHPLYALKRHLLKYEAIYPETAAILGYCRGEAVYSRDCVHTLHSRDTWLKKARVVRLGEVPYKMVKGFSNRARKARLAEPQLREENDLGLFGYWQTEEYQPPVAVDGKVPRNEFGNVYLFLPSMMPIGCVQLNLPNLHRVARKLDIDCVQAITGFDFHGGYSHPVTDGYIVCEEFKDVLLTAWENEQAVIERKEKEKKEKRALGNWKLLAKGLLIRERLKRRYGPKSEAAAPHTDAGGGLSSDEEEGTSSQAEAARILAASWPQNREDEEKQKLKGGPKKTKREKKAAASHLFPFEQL
UniProt Q8NE71: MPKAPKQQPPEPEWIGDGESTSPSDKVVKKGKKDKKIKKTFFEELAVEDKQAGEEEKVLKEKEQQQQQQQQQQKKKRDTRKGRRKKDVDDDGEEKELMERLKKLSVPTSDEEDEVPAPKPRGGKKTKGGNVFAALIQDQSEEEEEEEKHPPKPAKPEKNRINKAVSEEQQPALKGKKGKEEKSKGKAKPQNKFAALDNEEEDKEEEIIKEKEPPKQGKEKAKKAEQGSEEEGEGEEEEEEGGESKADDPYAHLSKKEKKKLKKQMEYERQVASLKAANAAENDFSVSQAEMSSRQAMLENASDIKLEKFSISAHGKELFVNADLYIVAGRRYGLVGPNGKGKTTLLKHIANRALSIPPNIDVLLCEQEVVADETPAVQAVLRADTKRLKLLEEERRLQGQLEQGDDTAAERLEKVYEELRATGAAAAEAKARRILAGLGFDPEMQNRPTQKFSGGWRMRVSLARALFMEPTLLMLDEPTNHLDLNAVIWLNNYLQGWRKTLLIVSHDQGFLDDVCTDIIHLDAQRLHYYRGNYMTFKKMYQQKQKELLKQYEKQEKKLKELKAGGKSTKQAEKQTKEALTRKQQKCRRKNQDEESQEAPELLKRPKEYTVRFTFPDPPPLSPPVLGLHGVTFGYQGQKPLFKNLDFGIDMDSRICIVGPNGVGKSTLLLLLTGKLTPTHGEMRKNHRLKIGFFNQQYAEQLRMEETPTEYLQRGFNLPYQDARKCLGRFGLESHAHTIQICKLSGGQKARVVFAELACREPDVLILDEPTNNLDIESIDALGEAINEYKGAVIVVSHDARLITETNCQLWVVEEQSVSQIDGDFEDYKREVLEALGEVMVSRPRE

B1: DKC1 (protein, UniProt O60832 1-514)
chain: MADAEVIILPKKHKKKKERKSLPEEDVAEIQHAEEFLIKPESKVAKLDTSQWPLLLKNFDKLNVRTTHYTPLACGSNPLKREIGDYIRTGFINLDKPSNPSSHEVVAWIRRILRVEKTGHSGTLDPKVTGCLIVCIERATRLVKSQQSAGKEYVGIVRLHNAIEGGTQLSRALETLTGALFQRPPLIAAVKRQLRVRTIYESKMIEYDPERRLGIFWVSCEAGTYIRTLCVHLGLLLGVGGQMQELRRVRSGVMSEKDHMVTMHDVLDAQWLYDNHKDESYLRRVVYPLEKLLTSHKRLVMKDSAVNAICYGAKIMLPGVLRYEDGIEVNQEIVVITTKGEAICMAIALMTTAVISTCDHGIVAKIKRVIMERDTYPRKWGLGPKASQKKLMIKQGLLDKHGKPTDSTPATWKQEYVDYSESAKKEVVAEVVKAPQVVAEAAKTAKRKRESESESDETPPAAPQLIKKEKKKSKKDKKAKAGLESGAEPGDGDSDTTKKKKKKKKAKEVELVSE

molecular target: FLAG-tagged SOX15 (human) (UniProt O60248); assay: co-IP

| binding | Molecule |
| --- | --- |
| binds | XPC (from UniProt Q01831 1-940) |
| binds | B1 |

| Molecule | binding |
| --- | --- |
| V5-tagged ABCF1 (from UniProt Q8NE71 1-845) | binds |
